Data as given in PubChem BioAssay.
Where “and” joins values, the source holds several entries; their conditions need not be identical. Equal values may be shown once. Some of the results follow. Measured potencies and affinities stand elsewhere. Entries without a call are filed as inconclusive in the source.

Columns and labels:
[1] = Polyglutamine toxicity reduction dose response, whole organism Drosophila SCA1 model (AID 1595); conditions: at 1 µM, stronger effect = higher value
[2] = PubChem AID 1597; conditions: Drosophila SCA1 polyglutamine model, at 1 µM, stronger effect = higher value

`CCCC(C(=O)OCCN(CC)CC)(c1ccccc1)c1ccccc1` showed a suppression of toxicity [1] of 0 and a suppression of toxicity [2] of 2.15.
Work on `CCOC(=O)[C@H](CCc1ccccc1)N[C@@H](C)C(=O)N1Cc2ccccc2C[C@H]1C(=O)O` yielded a suppression of toxicity [1] of 1.43 and a suppression of toxicity [2] of 2.15.
Compound `Oc1c(I)cc(I)c2cccnc12` has a suppression of toxicity [1] of 4.29 and a suppression of toxicity [2] of 5.
In the case of `COC(=O)[C@H]1[C@H]2C[C@H]3c4[nH]c5cc(OC)ccc5c4CCN3C[C@H]2C[C@@H](OC(=O)c2cc(OC)c(OC)c(OC)c2)[C@@H]1OC`, the suppression of toxicity [1] is reported as 4.29 and the suppression of toxicity [2] is reported as 5.71.
`CC(CN(C)C)CN1c2ccccc2Sc2ccccc21` (stereo not drawn) showed a suppression of toxicity [1] of 2.86 and a suppression of toxicity [2] of 0.715.
For `CCOC(=O)[C@H](CCc1ccccc1)N[C@@H](C)C(=O)N1CCC[C@H]1C(=O)O`, the suppression of toxicity [1] was 0 and the suppression of toxicity [2] was 4.29.
`CC(=O)OCC(=O)[C@@]1(O)CCC2C3CCC4=CC(=O)CC[C@]4(C)C3C(=O)C[C@@]21C` (stereo partly drawn) gave a suppression of toxicity [1] of 1.43 and a suppression of toxicity [2] of 4.29.
For `CO[C@@H]1[C@@H](O[C@@H]2O[C@H](C)[C@@H](O[C@H]3C[C@@](C)(O)[C@H](O)[C@H](C)O3)[C@H](N(C)C)[C@H]2O)[C@@H](CC=O)C[C@@H](C)[C@@H](O[C@H]2CC[C@H](N(C)C)[C@@H](C)O2)/C=C/C=C/C[C@H](C)OC(=O)C[C@H]1O`, the suppression of toxicity [1] was 10 and the suppression of toxicity [2] was 14.3.
`CC(NC(=O)C(NC(=O)OCc1ccccc1)C(C)C)C(=O)NC(CC(=O)O)C(=O)OC(F)F` (stereo not drawn) gave a suppression of toxicity [1] of 0 and a suppression of toxicity [2] of 0.715.
With `C=C[C@H]1CN2CC[C@H]1C[C@@H]2[C@@H](O)c1ccnc2ccc(OC)cc12` the suppression of toxicity [1] was 0 and the suppression of toxicity [2] was 2.86.
`O=C(O)CCCCCCCC(=O)O` showed a suppression of toxicity [1] of 0 and a suppression of toxicity [2] of 10.7.
For `COc1ccc2[nH]cc(CCNC(C)=O)c2c1`, the suppression of toxicity [1] was 2.85 and the suppression of toxicity [2] was 4.29.
Compound `CC(C)C(=O)Nc1ccc([N+](=O)[O-])c(C(F)(F)F)c1` has a suppression of toxicity [1] of 0 and a suppression of toxicity [2] of 12.1.
Compound `S=c1nc[nH]c2nc[nH]c12` has a suppression of toxicity [1] of 7.14 and a suppression of toxicity [2] of 2.86.
`CC(=O)c1c(O)c(C)c(O)c2c1OC1=CC(=O)C(C(C)=O)C(=O)C12C` (stereo not drawn) showed a suppression of toxicity [1] of 0 and a suppression of toxicity [2] of 0.715.
For `OC(CCN1CCCC1)(c1ccccc1)C1CCCCC1` (stereo not drawn), the suppression of toxicity [1] was 1.43 and the suppression of toxicity [2] was 6.42.
In the case of `Oc1cccc(O)c1`, the suppression of toxicity [1] is reported as 14.3 and the suppression of toxicity [2] is reported as 22.9.
In the case of `C=C(C)[C@H]1CC=C(C(=O)O)CC1`, the suppression of toxicity [1] is reported as 8.57 and the suppression of toxicity [2] is reported as 15.
In the case of `CC1(C)S[C@@H]2[C@H](NC(=O)COc3ccccc3)C(=O)N2[C@H]1C(=O)O`, the suppression of toxicity [1] is reported as 5.71 and the suppression of toxicity [2] is reported as 3.58.
For `O=C(O)c1cc(=O)c2cccc(O)c2[nH]1`, the suppression of toxicity [1] was 4.29 and the suppression of toxicity [2] was 12.1.
Compound `O=C(Cn1ccnc1[N+](=O)[O-])NCCO` has a suppression of toxicity [1] of 7.14 and a suppression of toxicity [2] of 12.1.
`Cc1cn([C@H]2C[C@H](N=[N+]=[N-])[C@@H](CO)O2)c(=O)[nH]c1=O` gave a suppression of toxicity [1] of 2.86 and a suppression of toxicity [2] of 6.42.
`CN(C)/N=N/c1nc[nH]c1C(N)=O` gave a suppression of toxicity [1] of 0 and a suppression of toxicity [2] of 2.86.
`CCC1(c2ccccc2)NC(=O)N(C)C1=O` (stereo not drawn) gave a suppression of toxicity [1] of 2.85 and a suppression of toxicity [2] of 0.715.
For `COc1ccc2c(c1OC)C(=O)OC2[C@H]1c2c(cc3c(c2OC)OCO3)CCN1C` (stereo partly drawn), the suppression of toxicity [1] was 5.71 and the suppression of toxicity [2] was 7.89.
Compound `CC(COc1ccccc1)N(CCCl)Cc1ccccc1` (stereo not drawn) has a suppression of toxicity [1] of 0 and a suppression of toxicity [2] of 2.85.
`Clc1ccc2c(c1)C(N1CCNCC1)=Nc1ccccc1O2` gave a suppression of toxicity [1] of 1.43 and a suppression of toxicity [2] of 4.29.
`CCN(CC)CCOC(=O)C(c1ccccc1)c1ccccc1` gave a suppression of toxicity [1] of 8.57 and a suppression of toxicity [2] of 12.1.
With `O=C(O)c1cccnc1C(=O)O` the suppression of toxicity [1] was 2.85 and the suppression of toxicity [2] was 5.71.
Compound `CCN(CC)CCOCCOC(=O)C1(c2ccccc2)CCCC1` has a suppression of toxicity [1] of 2.85 and a suppression of toxicity [2] of 6.43.
With `CCC(=O)OC1CCC2C3CCc4cc(O)ccc4C3CCC12C` (stereo not drawn) the suppression of toxicity [1] was 1.43 and the suppression of toxicity [2] was 1.43.
In the case of `O=C1CC2(CCCC2)CC(=O)N1CCCCN1CCN(c2ncccn2)CC1`, the suppression of toxicity [1] is reported as 8.57 and the suppression of toxicity [2] is reported as 11.4.
In the case of `O=c1c(O)cc2c(O)oc3c(=O)c(O)cc4c3c2c1CC=4O`, the suppression of toxicity [1] is reported as 5.71 and the suppression of toxicity [2] is reported as 12.1.
`CC(C)Cc1ccc(C(C)C(=O)O)cc1` (stereo not drawn) showed a suppression of toxicity [1] of 0 and a suppression of toxicity [2] of 8.57.
In the case of `Fc1ccc(C(c2ccccc2)(c2ccccc2F)n2ccnc2)cc1` (stereo not drawn), the suppression of toxicity [1] is reported as 0 and the suppression of toxicity [2] is reported as 0 and 2.86.
Work on `CO[C@@]1(NC(=O)Cc2cccs2)C(=O)N2C(C(=O)O)=C(COC(N)=O)CS[C@@H]21` yielded a suppression of toxicity [1] of 1.43 and a suppression of toxicity [2] of 3.58.
Compound `CCCCC[C@H](CC(=O)NO)C(=O)N[C@H](C(=O)N1CCC[C@H]1CO)C(C)C` has a suppression of toxicity [1] of 0 and a suppression of toxicity [2] of 0.715.
`O=C(O)CCCCC1SCC2NC(=O)NC21` (stereo not drawn) gave a suppression of toxicity [1] of 4.29 and a suppression of toxicity [2] of 7.86.
Compound `CSCCC(NC=O)C(=O)NC(CC(C)C)C(=O)NC(Cc1ccccc1)C(=O)O` (stereo not drawn) has a suppression of toxicity [1] of 1.43 and a suppression of toxicity [2] of 0.
For `Nc1c2c(nc3ccccc13)CCCC2`, the suppression of toxicity [1] was 8.57 and the suppression of toxicity [2] was 10.7.
In the case of `CC[C@H]1OC(=O)[C@H](C)[C@@H](O[C@H]2C[C@@](C)(OC)[C@@H](O)[C@H](C)O2)[C@H](C)[C@@H](O[C@@H]2O[C@H](C)C[C@H](N(C)C)[C@H]2O)[C@](C)(O)C[C@@H](C)C(=O)[C@H](C)[C@@H](O)[C@]1(C)O`, the suppression of toxicity [1] is reported as 1.43 and 4.29 and the suppression of toxicity [2] is reported as 7.14 and 2.86 and 2.15.
For `COc1ccc(NS(=O)(=O)c2ccc(N)cc2)nn1`, the suppression of toxicity [1] was 0 and the suppression of toxicity [2] was 5.
`COc1ccc(/C=C/c2cc(O)cc(O[C@@H]3O[C@H](CO)[C@@H](O)[C@H](O)[C@H]3O)c2)cc1O` gave a suppression of toxicity [1] of 1.43 and a suppression of toxicity [2] of 0.715.
With `C[C@H]1O[C@@H](O[C@H]2[C@@H](O)C[C@H](O[C@H]3[C@@H](O)C[C@H](O[C@H]4CC[C@]5(C)C6C[C@@H](O)[C@]7(C)[C@@H](C8=CC(=O)OC8)CC[C@]7(O)C6CC[C@@H]5C4)O[C@@H]3C)O[C@@H]2C)C[C@H](O)[C@@H]1O` (stereo partly drawn) the suppression of toxicity [1] was 0 and the suppression of toxicity [2] was 2.86.
